In the supplement of paper PMC10849652:
This is one part of the list.

The chains behind the UniProt entries cited, without tags or fusion partners. Where a name states a change or a piece, a line headed by the entry shows the natural chain unless it says otherwise.
UniProt Q8WW38: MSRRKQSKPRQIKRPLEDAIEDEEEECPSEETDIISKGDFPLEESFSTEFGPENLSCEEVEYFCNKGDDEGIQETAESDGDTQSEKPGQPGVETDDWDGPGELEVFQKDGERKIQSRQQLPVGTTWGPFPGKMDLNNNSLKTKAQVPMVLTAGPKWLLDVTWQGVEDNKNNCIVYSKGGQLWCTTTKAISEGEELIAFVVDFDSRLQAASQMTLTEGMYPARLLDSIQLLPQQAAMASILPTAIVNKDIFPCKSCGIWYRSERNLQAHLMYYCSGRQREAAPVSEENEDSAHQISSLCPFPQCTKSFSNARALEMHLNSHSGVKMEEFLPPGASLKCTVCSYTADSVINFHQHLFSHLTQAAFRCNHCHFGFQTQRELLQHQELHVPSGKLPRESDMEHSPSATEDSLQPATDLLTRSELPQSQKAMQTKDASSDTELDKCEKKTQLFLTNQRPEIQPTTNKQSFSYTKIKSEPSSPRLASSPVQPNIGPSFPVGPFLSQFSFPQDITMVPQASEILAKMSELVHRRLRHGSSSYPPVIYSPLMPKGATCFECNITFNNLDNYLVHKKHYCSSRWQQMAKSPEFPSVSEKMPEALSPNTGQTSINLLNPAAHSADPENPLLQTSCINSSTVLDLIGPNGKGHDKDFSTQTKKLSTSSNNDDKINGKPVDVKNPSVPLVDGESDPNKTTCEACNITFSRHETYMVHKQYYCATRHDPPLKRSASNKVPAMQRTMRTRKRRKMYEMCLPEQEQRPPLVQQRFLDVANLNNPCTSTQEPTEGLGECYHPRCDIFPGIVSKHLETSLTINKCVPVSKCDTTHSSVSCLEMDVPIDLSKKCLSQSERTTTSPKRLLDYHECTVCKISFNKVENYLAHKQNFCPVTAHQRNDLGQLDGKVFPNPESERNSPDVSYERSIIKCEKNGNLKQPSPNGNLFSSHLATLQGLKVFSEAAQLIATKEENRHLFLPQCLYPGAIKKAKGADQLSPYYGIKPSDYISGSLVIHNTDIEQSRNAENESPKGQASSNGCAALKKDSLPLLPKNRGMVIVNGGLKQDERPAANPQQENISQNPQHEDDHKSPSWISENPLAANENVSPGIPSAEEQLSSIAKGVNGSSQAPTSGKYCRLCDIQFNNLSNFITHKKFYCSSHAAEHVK
UniProt Q96GR4: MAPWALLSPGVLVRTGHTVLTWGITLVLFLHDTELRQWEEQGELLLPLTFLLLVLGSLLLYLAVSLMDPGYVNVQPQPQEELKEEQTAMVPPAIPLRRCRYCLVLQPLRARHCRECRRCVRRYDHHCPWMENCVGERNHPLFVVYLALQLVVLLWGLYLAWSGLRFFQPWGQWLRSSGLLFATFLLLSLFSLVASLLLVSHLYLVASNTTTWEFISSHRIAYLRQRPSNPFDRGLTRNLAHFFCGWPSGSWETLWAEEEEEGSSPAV
UniProt P58557: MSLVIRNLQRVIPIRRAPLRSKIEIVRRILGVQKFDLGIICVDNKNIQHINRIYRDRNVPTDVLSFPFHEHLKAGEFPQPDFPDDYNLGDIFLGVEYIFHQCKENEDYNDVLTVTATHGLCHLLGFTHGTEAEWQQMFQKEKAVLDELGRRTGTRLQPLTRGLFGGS
UniProt Q9BYJ9: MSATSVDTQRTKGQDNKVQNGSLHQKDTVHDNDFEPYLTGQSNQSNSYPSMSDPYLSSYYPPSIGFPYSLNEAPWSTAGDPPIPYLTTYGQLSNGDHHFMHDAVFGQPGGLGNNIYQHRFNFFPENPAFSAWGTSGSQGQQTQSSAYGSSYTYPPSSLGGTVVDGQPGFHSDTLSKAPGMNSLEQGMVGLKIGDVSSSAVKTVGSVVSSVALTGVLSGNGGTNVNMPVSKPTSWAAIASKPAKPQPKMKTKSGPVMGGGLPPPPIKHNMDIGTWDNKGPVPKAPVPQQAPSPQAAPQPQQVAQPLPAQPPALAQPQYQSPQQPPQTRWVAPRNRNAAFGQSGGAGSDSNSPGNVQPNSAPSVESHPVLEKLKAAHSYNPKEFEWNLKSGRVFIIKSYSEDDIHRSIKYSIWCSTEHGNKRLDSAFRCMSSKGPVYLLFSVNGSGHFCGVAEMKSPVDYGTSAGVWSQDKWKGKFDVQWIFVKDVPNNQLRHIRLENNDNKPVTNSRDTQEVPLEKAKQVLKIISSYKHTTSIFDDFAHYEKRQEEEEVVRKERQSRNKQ
UniProt Q9UGR2: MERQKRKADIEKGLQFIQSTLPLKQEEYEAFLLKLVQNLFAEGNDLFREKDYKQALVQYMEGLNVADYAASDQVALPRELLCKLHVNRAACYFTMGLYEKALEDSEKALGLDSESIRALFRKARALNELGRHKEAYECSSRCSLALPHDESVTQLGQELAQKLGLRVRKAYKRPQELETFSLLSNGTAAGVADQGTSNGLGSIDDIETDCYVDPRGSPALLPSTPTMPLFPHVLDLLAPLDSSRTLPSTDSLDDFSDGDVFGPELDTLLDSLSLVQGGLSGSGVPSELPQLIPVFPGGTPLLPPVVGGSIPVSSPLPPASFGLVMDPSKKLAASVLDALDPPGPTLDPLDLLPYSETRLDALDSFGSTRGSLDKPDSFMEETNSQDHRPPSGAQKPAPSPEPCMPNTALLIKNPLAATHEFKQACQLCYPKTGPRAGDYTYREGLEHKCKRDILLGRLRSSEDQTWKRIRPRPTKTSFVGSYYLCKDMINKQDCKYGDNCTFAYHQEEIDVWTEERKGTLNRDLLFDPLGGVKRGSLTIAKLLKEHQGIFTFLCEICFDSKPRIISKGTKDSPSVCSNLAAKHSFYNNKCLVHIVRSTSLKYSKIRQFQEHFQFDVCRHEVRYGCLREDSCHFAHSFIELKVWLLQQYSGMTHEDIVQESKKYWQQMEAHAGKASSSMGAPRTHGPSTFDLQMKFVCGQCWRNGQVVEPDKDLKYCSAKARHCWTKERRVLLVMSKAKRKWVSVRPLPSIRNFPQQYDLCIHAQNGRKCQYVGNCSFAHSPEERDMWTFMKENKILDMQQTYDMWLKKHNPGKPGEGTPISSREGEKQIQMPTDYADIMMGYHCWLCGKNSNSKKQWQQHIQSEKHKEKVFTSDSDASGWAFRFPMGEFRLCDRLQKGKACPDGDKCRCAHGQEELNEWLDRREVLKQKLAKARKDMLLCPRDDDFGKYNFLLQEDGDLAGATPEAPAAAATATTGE
UniProt Q9NP64: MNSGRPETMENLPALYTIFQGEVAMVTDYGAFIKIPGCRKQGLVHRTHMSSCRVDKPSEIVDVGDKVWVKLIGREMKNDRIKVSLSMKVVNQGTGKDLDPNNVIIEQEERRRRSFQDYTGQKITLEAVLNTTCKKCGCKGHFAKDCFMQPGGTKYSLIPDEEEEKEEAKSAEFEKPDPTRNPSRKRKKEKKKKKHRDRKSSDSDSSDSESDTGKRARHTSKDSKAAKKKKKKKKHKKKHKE
UniProt Q9UQR1: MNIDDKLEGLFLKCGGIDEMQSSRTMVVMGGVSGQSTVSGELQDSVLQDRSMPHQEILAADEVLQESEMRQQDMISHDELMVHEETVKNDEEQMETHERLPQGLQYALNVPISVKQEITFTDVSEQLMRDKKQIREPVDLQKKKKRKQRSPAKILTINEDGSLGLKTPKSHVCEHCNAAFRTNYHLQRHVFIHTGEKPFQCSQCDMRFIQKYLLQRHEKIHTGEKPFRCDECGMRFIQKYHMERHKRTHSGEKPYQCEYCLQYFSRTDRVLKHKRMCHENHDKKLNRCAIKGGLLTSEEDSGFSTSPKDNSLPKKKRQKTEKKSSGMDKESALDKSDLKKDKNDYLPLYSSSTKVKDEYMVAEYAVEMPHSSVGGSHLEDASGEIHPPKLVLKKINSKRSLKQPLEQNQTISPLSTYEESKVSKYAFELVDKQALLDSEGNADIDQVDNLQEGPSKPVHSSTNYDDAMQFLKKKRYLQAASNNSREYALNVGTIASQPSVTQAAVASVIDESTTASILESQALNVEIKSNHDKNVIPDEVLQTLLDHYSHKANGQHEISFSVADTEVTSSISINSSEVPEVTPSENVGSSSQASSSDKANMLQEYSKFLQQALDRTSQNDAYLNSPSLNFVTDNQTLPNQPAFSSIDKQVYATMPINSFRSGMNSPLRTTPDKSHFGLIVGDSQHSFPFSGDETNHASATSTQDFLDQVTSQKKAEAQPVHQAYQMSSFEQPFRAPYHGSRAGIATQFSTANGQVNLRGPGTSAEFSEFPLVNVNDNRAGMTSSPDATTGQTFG
UniProt Q9H1B5: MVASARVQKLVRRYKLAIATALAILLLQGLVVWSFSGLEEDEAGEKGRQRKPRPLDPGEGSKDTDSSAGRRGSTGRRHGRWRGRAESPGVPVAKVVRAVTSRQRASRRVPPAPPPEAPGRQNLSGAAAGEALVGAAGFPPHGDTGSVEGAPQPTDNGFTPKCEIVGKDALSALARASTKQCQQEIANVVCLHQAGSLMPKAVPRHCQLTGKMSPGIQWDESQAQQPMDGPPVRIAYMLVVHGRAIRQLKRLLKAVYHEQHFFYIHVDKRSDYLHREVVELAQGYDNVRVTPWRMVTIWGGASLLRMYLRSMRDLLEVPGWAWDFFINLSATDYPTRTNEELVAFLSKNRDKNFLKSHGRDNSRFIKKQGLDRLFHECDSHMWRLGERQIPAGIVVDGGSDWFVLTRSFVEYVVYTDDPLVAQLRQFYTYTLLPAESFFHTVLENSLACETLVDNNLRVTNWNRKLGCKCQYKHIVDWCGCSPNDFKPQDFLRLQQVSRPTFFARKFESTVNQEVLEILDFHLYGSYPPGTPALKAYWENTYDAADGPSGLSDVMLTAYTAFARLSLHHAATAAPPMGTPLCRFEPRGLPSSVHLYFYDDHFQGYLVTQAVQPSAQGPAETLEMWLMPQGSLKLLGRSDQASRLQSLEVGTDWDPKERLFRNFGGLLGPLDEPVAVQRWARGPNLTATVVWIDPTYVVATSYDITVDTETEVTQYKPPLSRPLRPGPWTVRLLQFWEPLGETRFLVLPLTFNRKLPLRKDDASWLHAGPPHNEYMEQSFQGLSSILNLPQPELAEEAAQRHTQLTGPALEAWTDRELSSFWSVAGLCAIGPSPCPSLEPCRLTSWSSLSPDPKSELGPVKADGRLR
UniProt Q86T24: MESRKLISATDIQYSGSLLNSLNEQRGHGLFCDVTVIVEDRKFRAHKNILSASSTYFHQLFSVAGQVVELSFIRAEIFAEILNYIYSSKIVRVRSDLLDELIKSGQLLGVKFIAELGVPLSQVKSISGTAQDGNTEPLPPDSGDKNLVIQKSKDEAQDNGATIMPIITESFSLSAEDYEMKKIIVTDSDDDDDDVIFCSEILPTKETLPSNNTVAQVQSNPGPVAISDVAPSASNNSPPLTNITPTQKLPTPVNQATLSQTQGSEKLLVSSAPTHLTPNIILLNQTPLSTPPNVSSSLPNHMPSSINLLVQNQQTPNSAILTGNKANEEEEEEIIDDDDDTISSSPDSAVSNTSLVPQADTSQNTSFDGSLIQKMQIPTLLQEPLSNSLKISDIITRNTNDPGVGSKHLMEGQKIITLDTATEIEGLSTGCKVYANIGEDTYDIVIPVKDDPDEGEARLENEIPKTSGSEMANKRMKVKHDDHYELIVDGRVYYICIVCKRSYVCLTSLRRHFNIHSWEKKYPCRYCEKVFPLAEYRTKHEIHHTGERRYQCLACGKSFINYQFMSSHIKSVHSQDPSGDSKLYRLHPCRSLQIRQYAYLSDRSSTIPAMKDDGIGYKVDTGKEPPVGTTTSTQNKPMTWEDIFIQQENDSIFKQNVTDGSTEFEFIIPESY
UniProt O43543: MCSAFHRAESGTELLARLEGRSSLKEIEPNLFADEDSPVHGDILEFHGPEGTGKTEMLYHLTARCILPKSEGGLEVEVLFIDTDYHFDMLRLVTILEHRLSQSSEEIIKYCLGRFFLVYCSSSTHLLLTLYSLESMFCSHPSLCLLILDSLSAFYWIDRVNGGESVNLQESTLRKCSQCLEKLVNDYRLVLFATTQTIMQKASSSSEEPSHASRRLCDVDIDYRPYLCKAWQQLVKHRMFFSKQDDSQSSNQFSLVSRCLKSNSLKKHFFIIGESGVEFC
UniProt Q9NPG8: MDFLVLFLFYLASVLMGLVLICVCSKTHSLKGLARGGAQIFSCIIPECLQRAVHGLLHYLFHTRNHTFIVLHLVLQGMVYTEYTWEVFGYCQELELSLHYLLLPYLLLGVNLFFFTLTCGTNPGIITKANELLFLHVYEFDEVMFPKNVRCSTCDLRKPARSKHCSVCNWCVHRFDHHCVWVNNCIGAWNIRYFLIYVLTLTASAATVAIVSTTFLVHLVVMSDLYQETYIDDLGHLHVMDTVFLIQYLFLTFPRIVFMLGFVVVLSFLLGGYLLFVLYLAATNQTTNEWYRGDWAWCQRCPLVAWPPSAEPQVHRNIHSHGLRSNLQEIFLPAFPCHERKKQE
UniProt P23025: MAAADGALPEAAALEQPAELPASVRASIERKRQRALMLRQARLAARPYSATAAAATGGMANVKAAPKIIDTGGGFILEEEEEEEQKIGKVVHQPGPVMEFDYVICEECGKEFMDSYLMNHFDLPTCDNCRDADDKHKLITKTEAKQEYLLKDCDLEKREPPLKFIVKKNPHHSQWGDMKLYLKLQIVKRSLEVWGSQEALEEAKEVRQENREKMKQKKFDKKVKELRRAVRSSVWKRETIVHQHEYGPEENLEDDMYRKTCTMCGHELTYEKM

Legend:
Experiment in all cases: log2 fold change, soluble protein after heating vs DMSO (PISA); higher = thermal stabilisation; K562 cells, 10 uM, 30 min; active = over 0.2 and 3.5 SD of the protein, either way, in both replicates (recomputed)
[1] = compound: CN(CCOC1=CC=C(C=C1)C[C@H]2C(=O)NC(=O)S2)C3=CC=CC=N3 (racemic) [rosiglitazone]
Procedure, shortened: (§1)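 K562 cells at 2×10^6 cells/mL were treated for 30 min with 10 μM compound, and aliquots were heated for 3 min over 48°C-58°C before pooling. Extraction used PBS with 0.5% NP-40 at 4°C, and soluble protein was the supernatant after 21,000xg for 90 min, measured by TMTpro 16plex LC-MS/MS with channel sums equalised. Thermal stability values, relative to control samples and from duplicates, are log2 fold changes.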

[2] = compound: CCn1cc(-c2ccnc3[nH]c(-c4cccc(CN(C)C)c4)cc23)c(-c2ccc(NC(=O)N(C)C)cc2)n1
Procedure, shortened: as §1

[3] = compound: CN1CCC(CNc2ccc3ncc(-c4cccc(OC(F)(F)F)c4)n3n2)CC1
Procedure, shortened: as §1

[4] = compound: CN1CC[C@H](c2c(O)cc(O)c3c(=O)cc(-c4ccccc4Cl)oc23)[C@H](O)C1 [alvocidib]
Procedure, shortened: as §1

[5] = compound: CN1CCc2c(c3ccccc3n2Cc2ccc(C(=O)NO)cc2)C1 [Tubastatin A]
Procedure, shortened: as §1

[6] = compound: CC[C@H](C)N1C=C(C2=C(C=C(C=C21)C3=CN=C(C=C3)N4CCNCC4)C(=O)NCC5=C(C=C(NC5=O)C)C)C
Procedure, shortened: as §1

[7] = compound: CC[C@H](C)[C@@H](C(=O)N[C@@H]([C@@H](C)O)C(=O)N[C@@H](CC(C)C)C(=O)[C@]1(CO1)C)NC(=O)[C@H]([C@@H](C)CC)N(C)C(=O)C [epoxomicin]
Procedure, shortened: as §1

[8] = compound: CN1C2=C(C3=C1C(=O)N(N=C3)CC4=CC(=CC=C4)N)SC(=C2)S(=O)C
Procedure, shortened: as §1

[9] = compound: CN1CCN(CCOc2cc(OC3CCOCC3)c3c(Nc4c(Cl)ccc5c4OCO5)ncnc3c2)CC1 [saracatinib]
Procedure, shortened: as §1

[10] = compound: CNc1nc(-c2ccc3c(N)n[nH]c3c2)cc(N2C[C@@H](C(=O)NC3CCCCC3)CC[C@H]2C)n1
Procedure, shortened: as §1

[11] = compound: CC[C@@H]1C(=O)N(C)c2cnc(Nc3ccc(C(=O)N[C@H]4CC[C@H](N5CCN(CC6CC6)CC5)CC4)cc3OC)nc2N1C(C)C [volasertib]
Procedure, shortened: as §1

[12] = compound: CN(C)CC(=O)Nc1ccc2[nH]c(=O)c3ccccc3c2c1
Procedure, shortened: as §1

[13] = compound: CNC(=O)c1ccc(Nc2ncc(C(F)(F)F)c(NCc3nccnc3N(C)S(C)(=O)=O)n2)cc1 [defactinib]
Procedure, shortened: as §1

[14] = compound: COC(=O)[C@H](CCSC)NC(=O)C1=C(C=C(C=C1)NC[C@H](CS)N)C2=CC=CC=C2
Procedure, shortened: as §1

[15] = compound: CCn1c(C(=O)N(C2CC2)C2CC2)cc2c3c(ncn3C)c(Nc3cc(C)n(C)n3)nc21
Procedure, shortened: as §1

[16] = compound: CNC(=O)C1=CC=CC=C1NC2=NC(=NC=C2Cl)NC3=C(C=C(C=C3)N4CCOCC4)OC
Procedure, shortened: as §1

[17] = compound: CC[C@@H]1C(=O)N(C)c2cnc(Nc3ccc(C(=O)NC4CCN(C)CC4)cc3OC)nc2N1C1CCCC1
Procedure, shortened: as §1

[18] = compound: CNCc1ccc(-c2[nH]c3cc(F)cc4c3c2CCNC4=O)cc1 [rucaparib]
Procedure, shortened: as §1

[19] = compound: COC(=O)N[C@@H](C)CNc1nccc(-c2cn(C(C)C)nc2-c2cc(Cl)cc(NS(C)(=O)=O)c2F)n1 [encorafenib]
Procedure, shortened: as §1

[20] = compound: CN1CCN(c2nc(C3=C(c4c[nH]c5ccccc45)C(=O)NC3=O)c3ccccc3n2)CC1 [sotrastaurin]
Procedure, shortened: as §1

Measured: log2 fold change

ZNF225 (UniProt Q9UK10)
inactive: [1] 0.047

ZDHHC9 (UniProt Q9Y397)
inactive: [2] -0.157 | [3] -0.047

ZFPM2 (UniProt Q8WW38)
inactive: [4] -0.131 | [5] 0.107

ZDHHC8 isoform 3 (UniProt Q9ULC8)
inactive: [6] -0.064 | [7] -0.037 | [8] 0.121 | [9] 0.188 | [5] 0.058 | [10] 0

ZDHHC12 isoform 3 (UniProt Q96GR4)
inactive: [11] 0.043 | [12] -0.028 | [8] -0.257 | [9] 0.378 | [5] 0.099 | [13] 0.053 | [10] -0.09 | [14] 0.004

YIF1A (UniProt O95070)
inactive: [11] -0.021 | [6] 0.024 | [15] 0.134 | [2] -0.041 | [12] 0.1 | [1] -0.007 | [8] 0.071 | [3] -0.047 | [9] 0.01 | [4] 0.044 | [5] -0.052 | [16] 0.086 | [13] -0.31 | [10] -0.125 | [14] -0.021

XYLB (UniProt O75191)
inactive: [7] -0.075 | [15] 0.026 | [16] 0.067

YBEY (UniProt P58557)
inactive: [15] 0.071 | [2] -0.72 | [3] -0.796 | [16] -0.096

YTHDC2 (UniProt Q9H6S0)
inactive: [17] 0.289 | [7] -0.106 | [2] 0.175 | [3] -0.082 | [18] 0.419 | [19] -0.075

YTHDF1 (UniProt Q9BYJ9)
inactive: [7] -0.235 | [15] -0.009 | [1] -0.185 | [16] 0.118

ZFYVE28 (UniProt Q9HCC9)
inactive: [11] 0.033 | [15] -0.053 | [1] -0.091 | [16] 0.012

ZDHHC13 (UniProt Q8IUH4)
inactive: [17] -0.332 | [7] 0.035 | [15] 0.287 | [20] -0.018 | [4] -0.039 | [16] 0.077 | [18] 0.202 | [19] 0.408

ZNF131 (UniProt P52739)
inactive: [7] 0.066 | [1] -0.096 | [20] 0.095

ZC3H7B (UniProt Q9UGR2)
inactive: [17] 0.151 | [2] -0.005 | [8] 0.484 | [3] 0.128 | [9] -0.196 | [20] -0.08 | [4] 0.224 | [5] 0.2 | [18] 0.378 | [10] 0.164 | [19] 0.401

XRCC1 (UniProt P18887)
inactive: [7] -0.1 | [2] 0.006 | [8] -0.192 | [3] -0.239 | [9] 0.008 | [20] -0.264 | [5] 0.055 | [16] 0.05 | [10] 0.148

ZCCHC17 (UniProt Q9NP64)
inactive: [12] -0.059 | [20] -0.095 | [13] 0.149 | [14] 0.033

ZNF148 (UniProt Q9UQR1)
inactive: [11] 0.001 | [6] 0.174 | [7] 0.036 | [15] -0.214 | [2] 0.088 | [1] 0.133 | [8] 0.043 | [3] 0.066 | [9] -0.038 | [20] -0.318 | [4] -0.018 | [5] -0.205 | [16] 0.145 | [10] 0.087

ZBTB7B isoform 2 (UniProt O15156)
inactive: [17] 0.142 | [12] 0.067 | [20] 0.059 | [5] 0.147 | [13] 0.185 | [18] -0.021 | [19] -0.092 | [14] -0.189

ZBED1 (UniProt O96006)
inactive: [11] -0.076 | [6] 0.23 | [7] 0.061 | [1] 0.073 | [8] -0.05 | [9] 0.077 | [20] -0.078 | [4] -0.133 | [5] 0.05 | [10] -0.126

ZFYVE26 (UniProt Q68DK2)
inactive: [4] 0.016

ZKSCAN3 (UniProt Q9BRR0)
inactive: [4] 0.149

ZBTB14 (UniProt O43829)
inactive: [15] -0.014 | [1] -0.06 | [4] 0.143 | [5] 0.016 | [16] 0.077

ZBTB21 (UniProt Q9ULJ3)
inactive: [11] -0.063 | [6] 0.059 | [7] -0.168 | [2] -0.073 | [12] 0.018 | [8] 0.049 | [3] -0.149 | [9] -0.149 | [20] 0.022 | [5] -0.132 | [16] -0.012 | [13] -0.033 | [10] -0.111 | [14] -0.022

Taken from the results shown (2 entries):
ZFYVE26 (UniProt Q68DK2)
inactive: [4] 0.016

ZKSCAN3 (UniProt Q9BRR0)
inactive: [4] 0.149

(cont.)

ZNF22 (UniProt P17026)
inactive: [15] -0.216 | [8] -0.072 | [9] -0.139 | [4] 0.18 | [5] 0.195 | [16] 0.135 | [10] 0.017

ZNF239 (UniProt Q16600)
inactive: [11] 0.084 | [6] -0.096 | [7] -0.051 | [2] 0.095 | [12] -0.1 | [8] 0.34 | [3] -0.063 | [9] 0.052 | [20] 0.144 | [5] 0.091 | [16] -0.055 | [13] -0.014 | [10] -0.055 | [14] 0.002

XYLT2 (UniProt Q9H1B5)
inactive: [7] -0.079 | [4] -0.241

ZBTB33 (UniProt Q86T24)
inactive: [17] 0.108 | [8] -0.02 | [9] -0.006 | [18] -0.006 | [10] 0.048 | [19] -0.097

ZFP36L2 (UniProt P47974)
inactive: [15] -0.316 | [16] -0.078

ZMYM2 (UniProt Q9UBW7)
inactive: [11] -0.798 | [1] 0.242 | [8] -0.005 | [9] -0.193 | [10] -0.032

YIPF2 (UniProt Q9BWQ6)
inactive: [6] 0.17 | [7] -0.002 | [1] -0.092 | [4] 0.019 | [5] -0.135

ZFHX4 isoform 5 (UniProt Q86UP3)
inactive: [6] 0.099 | [15] -0.029 | [20] -0.048 | [5] 0.155 | [16] 0.077

XRCC2 (UniProt O43543)
inactive: [11] 0.005 | [6] 0.017 | [7] -0.023 | [15] -0.042 | [8] -0.057 | [9] -0.014 | [4] -0.118 | [16] -0.025 | [10] 0.155

ZDHHC4 (UniProt Q9NPG8)
inactive: [11] 0.069 | [7] -0.136 | [15] -0.094 | [12] 0.134 | [1] 0.077 | [20] 0.014 | [16] 0.015 | [13] -0.124 | [14] -0.124

ZKSCAN4 (UniProt Q969J2)
inactive: [12] -0.187 | [4] 0.171 | [5] -0.002 | [13] 0.196 | [14] -0.332

XPA (UniProt P23025)
inactive: [11] -0.558 | [6] 0.006 | [7] -0.003 | [2] 0.087 | [12] 0.07 | [3] -0.175 | [5] 0.179 | [13] -0.111 | [14] 0.136

ZEB2 (UniProt O60315)
inactive: [11] 0.001 | [6] 0.173 | [7] -0.026 | [12] -0.124 | [8] 0.098 | [9] 0.008 | [20] -0.056 | [5] 0.181 | [16] -0.07 | [13] 0.019 | [10] -0.09 | [14] -0.382
